Experimental data: patent US20250170156A1, “TOLL-LIKE RECEPTOR LIGANDS” (INIMMUNE CORPORATION, priority 2018, published 2025)
Some of these results come from one statement about several compounds together.

Assay: Stability of aqueous formulations by reverse-phase-HPLC
Assay type: physicochemical
Conditions: 40° C.
Procedure: Formulation. The salted compound was accurately weighed into depyrogenated glass vials, and the required volume of aqueous vehicle added to attain the desired concentration. Vials were placed in a sonication bath (sonication bath temperature≤45° C.) to assist solubility and reduce particle size to achieve sterile filtration without significant loss of compound. Once the solution appeared homogeneous, the particle size was periodically monitored by dynamic light scattering until the solution turned clear and the particle size was <200 mn, or the particle size no longer reduced with continued sonication. The formulation was filtered through a 0.22p PVDF membrane filter into a depyrogenated glass vial and the resulting solution quantitated by RP-HPLC.
Aqueous formulations of compounds 1, 2, 3, 4, 5 and 6 were aliquoted into small depyrogenated vials for stability evaluation at temperatures of 2°-8° C., 25° C., and 40° C. This mirrors ICH stability temperature guidelines, but humidity was not controlled. A vial was pulled for each time point/temperature and analyzed by reverse-phase-HPLC (FIGS. 9-14) according to the following schedule starting from 2 weeks to up to 12 months.

Structure (SMILES): CCCCCCCCCCC[C@H](CC(=O)NCCO[C@@H]1OC(CO)[C@@H](OS(=O)(=O)O)[C@H](NC(=O)C[C@@H](CCCCCCCCCCC)OC(=O)CCCCCCCCC)C1NC(=O)C[C@@H](CCCCCCCCCCC)OC(=O)CCCCCCCCC)OC(=O)CCCCCCCCC (stereo partly drawn) [Compound 2, 2-[(R)-3-decanoyloxytetradecanoylamino]ethyl 2,3-di-[(R)-3-decanoyloxytetradecanoylamino]-2,3-dideoxy-4-O-sulfoxy-β-D-allopyranoside]
- time with no degradation (formulated in 2% glycine (FIG. 10A)): ≥ 8 weeks

Structure (SMILES): CCCCCCCCCCC[C@H](CC(=O)NC1C(NC(=O)C[C@@H](CCCCCCCCCCC)OCCCCCCCCCC)[C@H](OP(=O)(O)O)C(CO)O[C@H]1OC[C@H](NC(=O)C[C@@H](CCCCCCCCCCC)OCCCCCCCCCC)C(=O)O)OCCCCCCCCCC (some centres unmarked) [Compound 4]
- time with no degradation (formulated in 2.5% glycine (FIGS. 9, 12)): ≥ 8 weeks
